According to publication PMC5859036:
These are yes or no findings as the source states them, for the method shown. In cells and extracts the contact can be indirect. Some results given as binding are weak or reduced against the parent protein; the word gives no strength.

Amino acid sequences for entries named in this document (tags omitted).
UniProt P07355: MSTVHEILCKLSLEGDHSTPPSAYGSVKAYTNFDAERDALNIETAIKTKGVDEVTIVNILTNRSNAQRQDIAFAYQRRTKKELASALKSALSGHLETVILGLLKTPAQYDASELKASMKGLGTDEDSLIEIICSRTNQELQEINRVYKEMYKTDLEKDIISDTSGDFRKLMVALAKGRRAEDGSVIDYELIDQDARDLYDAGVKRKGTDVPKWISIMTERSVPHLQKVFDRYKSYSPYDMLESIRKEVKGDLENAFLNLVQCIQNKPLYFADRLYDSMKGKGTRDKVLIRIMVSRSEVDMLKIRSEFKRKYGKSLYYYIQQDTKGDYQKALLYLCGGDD
UniProt P35222: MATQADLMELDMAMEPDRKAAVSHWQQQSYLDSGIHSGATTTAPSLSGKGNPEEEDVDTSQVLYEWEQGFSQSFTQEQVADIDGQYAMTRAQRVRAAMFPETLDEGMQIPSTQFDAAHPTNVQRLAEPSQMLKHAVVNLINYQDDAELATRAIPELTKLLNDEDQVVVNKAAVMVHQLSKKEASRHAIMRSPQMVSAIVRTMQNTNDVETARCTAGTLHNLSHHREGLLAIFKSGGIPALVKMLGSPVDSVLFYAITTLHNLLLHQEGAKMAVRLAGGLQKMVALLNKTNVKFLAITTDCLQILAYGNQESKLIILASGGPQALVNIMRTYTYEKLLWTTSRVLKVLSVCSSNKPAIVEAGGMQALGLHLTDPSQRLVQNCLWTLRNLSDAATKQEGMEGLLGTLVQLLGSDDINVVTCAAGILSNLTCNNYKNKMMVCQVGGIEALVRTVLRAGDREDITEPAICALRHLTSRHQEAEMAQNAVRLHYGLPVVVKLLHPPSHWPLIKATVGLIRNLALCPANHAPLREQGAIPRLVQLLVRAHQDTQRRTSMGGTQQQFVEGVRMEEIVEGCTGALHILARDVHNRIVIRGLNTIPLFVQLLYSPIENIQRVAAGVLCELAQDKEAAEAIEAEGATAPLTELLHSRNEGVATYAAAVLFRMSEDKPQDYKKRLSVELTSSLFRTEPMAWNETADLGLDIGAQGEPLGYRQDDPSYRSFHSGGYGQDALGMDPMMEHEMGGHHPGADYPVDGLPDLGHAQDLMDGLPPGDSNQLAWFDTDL

Key:
[1] = molecular target: T1, stomatin-like protein-2 (SLP-2) (human) (UniProt Q9UJZ1); assay: co-IP; immunoprecipitation and western blotting from A549SLP2 cells; which protein was precipitated is not told in the text shown (Supplemental Fig. 4A)
T1 sequence: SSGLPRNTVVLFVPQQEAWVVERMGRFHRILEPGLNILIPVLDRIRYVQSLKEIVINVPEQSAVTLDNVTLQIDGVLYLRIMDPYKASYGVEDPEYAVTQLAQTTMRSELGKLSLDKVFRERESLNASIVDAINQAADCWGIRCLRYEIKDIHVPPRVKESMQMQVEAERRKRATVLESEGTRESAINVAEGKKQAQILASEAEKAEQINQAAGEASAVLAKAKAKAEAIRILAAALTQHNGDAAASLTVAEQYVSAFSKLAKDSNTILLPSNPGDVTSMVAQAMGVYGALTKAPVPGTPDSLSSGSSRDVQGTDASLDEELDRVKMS

[2] = molecular target: annexin A2 (human (endogenous in A549)) (UniProt P07355); assay: as above

Row | binding [1] | binding [2] | Substance
1 | binds | – | annexin A2 (from UniProt P07355 1-339)
2 | – | binds | β-catenin (from UniProt P35222 1-781)
